No constants are given. Whether binding was seen depends on the method and setting. For some assays here: In cells and extracts the contact can be indirect. Some entries that bind do so weakly or less than the wild type. Where a sequence is shown, tags or fusion partners need not be part of it.
What follows are substances tested against T1, FGF12-GFP.myc (UniProt P61328) (assay: proximity ligation; in situ PLA (Duolink) in fixed, permeabilised U2OS-FGF12-GFP.myc cells; mouse anti-myc antibody detecting FGF12-GFP.myc and rabbit antibodies against galectin-1, -3, -7 or -8; fluorescence microscopy).
T1 sequence: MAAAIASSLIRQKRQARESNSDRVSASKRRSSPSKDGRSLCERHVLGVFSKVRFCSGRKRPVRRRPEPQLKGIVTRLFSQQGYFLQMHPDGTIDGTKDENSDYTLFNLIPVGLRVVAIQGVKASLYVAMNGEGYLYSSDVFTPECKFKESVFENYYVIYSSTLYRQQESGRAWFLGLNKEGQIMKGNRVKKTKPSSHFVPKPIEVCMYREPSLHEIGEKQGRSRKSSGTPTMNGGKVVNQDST

Protein sequences, listed by entry. Tags and fused reporters are not part of them.
UniProt P17931: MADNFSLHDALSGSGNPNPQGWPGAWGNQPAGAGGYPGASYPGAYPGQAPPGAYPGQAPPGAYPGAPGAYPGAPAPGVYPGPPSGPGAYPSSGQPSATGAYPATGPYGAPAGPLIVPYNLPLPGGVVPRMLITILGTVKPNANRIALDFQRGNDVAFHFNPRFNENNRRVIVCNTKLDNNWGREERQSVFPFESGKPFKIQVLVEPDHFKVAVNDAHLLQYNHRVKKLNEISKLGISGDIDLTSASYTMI
UniProt O00214: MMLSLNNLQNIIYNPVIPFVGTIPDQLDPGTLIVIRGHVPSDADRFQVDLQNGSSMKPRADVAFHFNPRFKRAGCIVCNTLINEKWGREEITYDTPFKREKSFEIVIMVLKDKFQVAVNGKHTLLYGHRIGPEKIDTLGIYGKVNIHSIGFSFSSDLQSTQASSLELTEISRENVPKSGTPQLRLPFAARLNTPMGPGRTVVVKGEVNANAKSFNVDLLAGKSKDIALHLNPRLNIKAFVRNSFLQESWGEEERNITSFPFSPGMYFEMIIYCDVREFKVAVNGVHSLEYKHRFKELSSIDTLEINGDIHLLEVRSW
UniProt P47929: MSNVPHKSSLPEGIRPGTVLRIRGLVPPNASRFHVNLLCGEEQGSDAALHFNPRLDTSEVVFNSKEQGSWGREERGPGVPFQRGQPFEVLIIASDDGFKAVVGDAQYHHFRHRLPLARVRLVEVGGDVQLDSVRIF
UniProt P09382: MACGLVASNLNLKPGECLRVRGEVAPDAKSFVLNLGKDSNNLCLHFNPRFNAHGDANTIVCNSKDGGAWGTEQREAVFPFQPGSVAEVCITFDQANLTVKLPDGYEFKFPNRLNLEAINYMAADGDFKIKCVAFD

Substance | binding
galectin-3 (endogenous, U2OS-FGF12-GFP.myc cells) (from UniProt P17931 1-250) | binds
galectin-8 (endogenous, U2OS-FGF12-GFP.myc cells) (from UniProt O00214 1-317) | binds
galectin-7 (endogenous, U2OS-FGF12-GFP.myc cells) (from UniProt P47929 1-136) | binds
galectin-1 (endogenous, U2OS-FGF12-GFP.myc cells) (from UniProt P09382 1-135) | binds

Each substance was assayed against T2, recombinant FGF12 fused with the His-tag (UniProt P61328) (assay: SPR; Biacore 3000, 25°C; His-tagged FGF12 immobilised by amine coupling on a CM4 (low density) chip at about 600 RU; galectins injected at 0.25 to 4 μM, 30 μL/min, in HBS with 0.05% Tween 20, 0.05% BSA, 0.02% NaN3, pH 7.4; KD from fitted saturation binding curves; both purified).
T2 sequence: T1 sequence

Substance | binding
recombinant galectin-3 (from UniProt P17931 1-250) | binds
recombinant galectin-8 (from UniProt O00214 1-317) | binds
recombinant galectin-7 (from UniProt P47929 1-136) | binds
recombinant galectin-1 (from UniProt P09382 1-135) | binds

From paper PMC10926643
